Binding data for 2 molecules are collected here from publication PMC11592518.

Chains of the proteins cited; added tags and fusions are not shown.
UniProt B1N2I7: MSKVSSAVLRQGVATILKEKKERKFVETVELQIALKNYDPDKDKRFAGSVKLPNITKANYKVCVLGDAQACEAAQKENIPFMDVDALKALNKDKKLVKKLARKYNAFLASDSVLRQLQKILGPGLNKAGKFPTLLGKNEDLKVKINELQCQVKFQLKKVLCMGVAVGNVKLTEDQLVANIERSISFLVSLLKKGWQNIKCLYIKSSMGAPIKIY

In this test the target is 60S ribosomal protein L10a-2 (Entamoeba histolytica (endogenous in HM-1:IMSS trophozoites)) (UniProt B1N2I7). Put plainly: co-sedimentation; ribosomes pelleted from trophozoite lysate (20 mM Hepes pH 7, 100 mM KCl, 5 mM MgCl2, 0.1% Triton, cycloheximide-treated cells) through a 0.5 M sucrose cushion, 60,000 RPM for 1 h 50 min; pellets blotted with Myc antibody and RPL1A antibody; trophozoites with or without 0.1 uM queuosine (Q) for 2 days.

No constants are given. Whether binding was seen depends on the method and setting. Binding seen in cells or lysates may run through a third protein. Some results given as binding are weak or reduced against the parent protein; the word gives no strength. Where a sequence is shown, tags or fusion partners need not be part of it.

B1: Myc-tagged truncated EhDUF2419 (domain or fragment, UniProt C4LXA2 1-279)
chain: MCEYVRWSVDYIEQNAKHVRVNQIKLKEKIIPLLEKIEAETFDESIHQAPNDIESRLRYILVVDALNFCFWPTEGFEYDDLTKGLSRLEHDHPEVFEPNQMKHVSSCLLSQYLVYNNRVISNIEERTRLMREVGEVLCNRFDQKVLNLLEESKYDATTLVSLIAKEFPGFRDSTIYKGRQVFFYKRAQIVVSDIQGMCGCIKGLEQLTGFADYRIPQVLLGWDVLDIEDQLKQKILDKKEIPSGSEEEIEIRCTVLSAIKMIQAIFLETKNSFIEGYRI
Take B1: the binding entry was “binds”.

B2: Myc-tagged EhDUF2419 (enzyme, UniProt C4LXA2 1-305)
chain: MCEYVRWSVDYIEQNAKHVRVNQIKLKEKIIPLLEKIEAETFDESIHQAPNDIESRLRYILVVDALNFCFWPTEGFEYDDLTKGLSRLEHDHPEVFEPNQMKHVSSCLLSQYLVYNNRVISNIEERTRLMREVGEVLCNRFDQKVLNLLEESKYDATTLVSLIAKEFPGFRDSTIYKGRQVFFYKRAQIVVSDIQGMCGCIKGLEQLTGFADYRIPQVLLGWDVLDIEDQLKQKILDKKEIPSGSEEEIEIRCTVLSAIKMIQAIFLETKNSFIEGYRIDWFLWSYGEKNKEQLPPHHRTQTIFY
Take B2: the binding result is recorded as “binds”.
